Results: US20190083616A1 (UNIVERSITY OF TENESSEE RESEARCH FOUNDATION, published 2019)
No constants are given. Whether binding was seen depends on the method and setting. In cells and extracts the contact can be indirect. Some binding calls cover weakened binding; strength is not graded here. One block for each binder: values may come before it.

The chains behind the UniProt entries cited, without tags or fusion partners. Residues count along the entry.
UniProt P05067, residues 672-711: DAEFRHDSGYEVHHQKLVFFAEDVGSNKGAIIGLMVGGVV
UniProt P10997, residues 34-70: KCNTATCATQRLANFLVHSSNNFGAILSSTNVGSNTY

Legend:
[1] = molecular target: synthetic Aβ(1-40) amyloid fibrils (UniProt P05067); assay: pulldown, peptope pre-incubated with fibrils, read out by 125I-7D8
[2] = molecular target: synthetic islet amyloid polypeptide (IAPP) fibrils (UniProt P10997); assay: as above
[3] = molecular target: synthetic Aβ(1-40) amyloid fibrils (UniProt P05067); assay: pulldown: 125I-labelled peptide with fibrils, amyloid extract or liver homogenate in PBST, 0.15 M NaCl; pellet cpm as % of total
[4] = molecular target: synthetic islet amyloid polypeptide (IAPP) fibrils (UniProt P10997); assay: as above
[5] = molecular target: synthetic Aβ(1-40) amyloid fibrils (UniProt P05067); assay: pulldown: 125I-labelled peptide with fibrils, amyloid extract or liver homogenate in PBST with 1 M NaCl; pellet cpm as % of total
[6] = molecular target: synthetic islet amyloid polypeptide (IAPP) fibrils (UniProt P10997); assay: as above
[7] = molecular target: synthetic Aβ(1-40) amyloid fibrils (UniProt P05067); assay: pulldown, 125I-peptide, synthetic fibrils
[8] = molecular target: synthetic islet amyloid polypeptide (IAPP) fibrils (UniProt P10997); assay: pulldown, 125I-peptide, synthetic fibrils
[9] = molecular target: synthetic Aβ(1-40) amyloid fibrils (UniProt P05067); assay: pulldown, 125I-peptide, 0.15 M NaCl (FIG. 13A)
[10] = molecular target: synthetic islet amyloid polypeptide (IAPP) fibrils (UniProt P10997); assay: pulldown, 125I-peptide, 0.15 M NaCl (FIG. 13A)
[11] = molecular target: synthetic Aβ(1-40) amyloid fibrils (UniProt P05067); assay: pulldown, 125I-peptide, 1.0 M NaCl (FIG. 13B)
[12] = molecular target: synthetic islet amyloid polypeptide (IAPP) fibrils (UniProt P10997); assay: pulldown, 125I-peptide, 1.0 M NaCl (FIG. 13B)

binding [1]: binds | binding [2]: binds
Binder: GGGYSKAQKAQAKQAKQAQKAQKAQAKQAKQAQHEDT [peptope p75 (p5 - QAQ spacer - HEDT)]

binding [1]: binds | binding [2]: binds
Binder: GGGYSKAQKAQAKQAKQAQKAQKAQAKQAKQGGGHEDT [peptope p76 (p5 - GGG spacer - HEDT)]

binding [1]: binds | binding [2]: binds
Binder: GGGYSKAQKAQAKQAKQAQKAQKAQAKQAKQGPGHEDT [peptope p77 (p5 - GPG spacer - HEDT)]

binding [1]: binds | binding [2]: binds
Binder: GGGYSKAQKAQAKQAKQAQKAQKAQAKQAKQVTVHEDT [peptope p78 (p5 - VTV spacer - HEDT)]

binding [3]: binds | binding [4]: binds | binding [5]: binds | binding [6]: binds | binding [7]: binds | binding [8]: binds | binding [9]: binds | binding [10]: binds | binding [11]: binds | binding [12]: binds
B1: peptope p66 (p5+14 - SVTVVT linker - 11-1F4 12-mer epitope …) (peptide)
peptide: KAQKAQAKQAKQAQKAQKAQAKQAKQAQKAQKAQAKQAKQSVTVVTKHYAAFPENLLI
